PubChem BioAssay AID1259424 | University of Nebraska Medical Center, 2018
Purpose: 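Find knockdowns that reproduce the expression shifts seen after KSR1 loss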 (primary screen). Cells: human HCT116 colon cancer cells. Knock-down reagent: siRNA pool against human genes, 50 nM. Detection: 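Log2 levels of six mRNAs (branched-DNA multiplex), adjusted by two reference genes and the non-targeting median, then scored against the average KSR1 knockdown pattern as Pearson r and euclidean distance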. Reading the numbers: mean correlation with KSR1 profile: higher = expression change more like KSR1 knockdown.
In all, the deposit lists about 14,000 reagents; shown is an unselected part. 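Higher correlation or smaller distance means closer resemblance to KSR1 loss; control wells, including KSR1 knockdowns, recur on many plates.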 Further read-outs or replicates are left out here. No sequences are given here. The record does not give: the time to read-out.

gene symbol	mean correlation with KSR1 profile
C6orf47	-0.946
APLP1	0.547
NSMCE4A	-0.142
CPA4	-0.0694
EIF2AK3	0.244
EIF4EBP3	0.59
COL6A2	0.325
NAA25	0.174
TLR4	0.424
SUPT20H	-0.529
IL36A	0.61
ECM2	-0.107
OTX1	0.85
WRNIP1	0.326

4 entries from above, ordered by “mean correlation with KSR1 profile”, high to low.
gene symbol	mean correlation with KSR1 profile
EIF4EBP3	0.59
COL6A2	0.325
EIF2AK3	0.244
CPA4	-0.0694

More records:
gene symbol	mean correlation with KSR1 profile
EIF4E	-0.101
TSHB	0.357
KLF15	0.59
CRCT1	-0.722
EFNA2	0.7
FLOT1	-0.0768
TCN2	-0.274
ITGB1	0.685
SOCS3	-0.234
PSMD2	-0.826
ATG4C	0.0241
RPL35	-0.396
IFNLR1	0.0354
TMEM109	0.00891
FBH1	-0.49
DOCK7	0.421
NXPH1	-0.725
REXO1	-0.341
CLDN17	0.505
DDX19B	0.218
